The record followed here is PMC5115890.

Sequences of proteins named here, by UniProt entry; tags and fusion partners are left off. A change or cut given only in a name is not applied to a line headed by its entry.
UniProt Q8N6T7: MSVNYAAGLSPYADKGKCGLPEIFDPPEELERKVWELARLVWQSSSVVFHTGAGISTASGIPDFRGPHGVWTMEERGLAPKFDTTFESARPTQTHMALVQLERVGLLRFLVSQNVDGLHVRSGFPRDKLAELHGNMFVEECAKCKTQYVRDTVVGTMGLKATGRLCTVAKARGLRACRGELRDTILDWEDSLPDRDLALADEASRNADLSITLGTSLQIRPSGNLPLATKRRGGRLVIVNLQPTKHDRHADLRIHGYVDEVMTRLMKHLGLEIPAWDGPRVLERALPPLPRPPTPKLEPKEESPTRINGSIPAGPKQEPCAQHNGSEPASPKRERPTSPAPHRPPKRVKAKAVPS
UniProt P46527: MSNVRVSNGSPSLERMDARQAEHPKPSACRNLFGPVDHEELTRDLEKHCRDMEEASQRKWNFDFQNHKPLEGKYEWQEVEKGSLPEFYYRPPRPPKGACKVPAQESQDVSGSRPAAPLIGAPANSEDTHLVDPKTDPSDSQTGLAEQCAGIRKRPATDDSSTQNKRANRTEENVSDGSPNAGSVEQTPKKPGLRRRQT

Results are given in words; binding and its absence hold for the method and conditions named. In cells and extracts the contact can be indirect.

The target in the test is flag-ΔSIRT6 (core domain deleted) (UniProt Q8N6T7). Kind of test: co-IP; 293 cells transfected with flag-SIRT6 or flag-ΔSIRT6; IP with flag antibody; blots with flag and p27 antibody.

For the substance “p27Kip1 (p27), endogenous (from UniProt P46527 1-198)”, the binding entry was “no binding”.
